Results as given in PubChem BioAssay AID488837 (National Center for Advancing Translational Sciences (NCATS), 2010).
Out of some 330,000 compounds screened, about 20 (0.006%) were called active. This list was built around the results that the source calls inconclusive (neither active nor inactive); the mix of calls is not that of the screen. Calls come from the whole dose curve; as a rule, active = well fitted inhibition curve with a large enough effect; inconclusive = small, poorly fitted or top-dose-only effect, or effect the other way; inactive = flat fitted curve, though single readings scatter. Potencies of inconclusive entries are doubtful fits and often do not repeat.

The chains behind the UniProt entries cited, without tags or fusion partners.
UniProt O00167, whole entry, looked up: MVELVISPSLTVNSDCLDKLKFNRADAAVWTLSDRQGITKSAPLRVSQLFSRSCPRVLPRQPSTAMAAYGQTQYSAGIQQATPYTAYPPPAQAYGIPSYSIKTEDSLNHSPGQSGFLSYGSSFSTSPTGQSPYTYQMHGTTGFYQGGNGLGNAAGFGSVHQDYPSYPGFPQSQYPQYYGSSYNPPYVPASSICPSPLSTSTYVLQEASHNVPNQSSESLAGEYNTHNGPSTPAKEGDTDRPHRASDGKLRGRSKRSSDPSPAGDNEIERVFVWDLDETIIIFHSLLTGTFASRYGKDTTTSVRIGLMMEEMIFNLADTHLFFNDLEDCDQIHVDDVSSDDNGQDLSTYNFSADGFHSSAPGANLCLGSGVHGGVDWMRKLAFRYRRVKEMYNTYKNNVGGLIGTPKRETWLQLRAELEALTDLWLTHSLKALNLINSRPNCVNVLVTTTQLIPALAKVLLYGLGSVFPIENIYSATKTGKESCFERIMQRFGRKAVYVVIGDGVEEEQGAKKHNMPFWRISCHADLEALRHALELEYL

The compounds below were run against Protein phosphatase EYA2 (Homo sapiens) (UniProt O00167) (assay: qHTS Assay for Inhibitors of the Phosphatase Activity of Eya2). Conditions: recombinant Eya2, OMFP fluorescence dephosphorylation (OMFP is methylfluorescein phosphate).
Excerpt: The Eya family of proteins are essential co-activators of the Six1 transcription factor. Six1 is a developmental gene that is abnormally re-expressed in a large percentage of breast cancers. This over-expression plays a causal role in the initiation and metastatic development of breast cancers. The Eya family of proteins was also found to contain a unique HAD phosphatase domain with protein tyrosine phosphatase activity which can potentially play a role in Six1-mediated breast tumorigenesis. […] We have developed and optimized a 1536 well fluorescence-based HTS assay targeting the phosphatase activity of Eya2. Inhibitors found against Eya2 could serve as potential therapeutic tools to inhibit Six1-mediated breast tumorigenesis and to increase the efficiency of radiation and certain chemo therapy. These inhibitors could also be used as chemical probes to study the function of Eya2's phosphatase activity and its role in Six1-mediated breast tumorigenesis.
The Eya2 enzyme was kindly provided by the laboratory of Dr. Rui Zhao. The 3-O-methyl-fluorescein phosphate (OMFP) substrate and all buffer reagents were purchased from Sigma Aldrich. qHTS Assay Setup: 1. Buffer- 50 mM HEPES pH 7.5, 50 mM NaCl, 5 uM MgCl2, 0.05% BSA, 1 mM DTT. 2. OMFP Stock- 10 mM solution prepared in 100% DMSO and stored in single use aliquots at -20C. Assay Procedure- 1. Dispense 1.5 ul per well of Eya2 at 0.2 uM in black medium binding 1536 well Greiner plate 2. Transfer 23 nl of compound and control compound (EGTA) to plate 3. Incubate at ambient for 10 minutes 4. Dispense 1.5 ul per well of OMFP at 50 uM 5. Incubate at ambient for 10 minutes 6. Read on ViewLux using Excitation = 485 nm, Emission = 525 nm
Potency is the fitted concentration of half-maximal effect.

`CCn1c(SCC(=O)Nc2sc3c(c2C#N)CCC(C(C)(C)C)C3)nnc1-c1ccco1` (stereo unspecified) was tested. Which Potency did it give?
The Potency was “inactive”.

With `COc1ccc(Cl)cc1CN1CCOCC1` as the compound, how does the Potency read?
Its Potency is inconclusive: 22.4 µM [inhibitor, single point].

How did the Potency turn out when `COc1ccc(-c2nc3ccccc3c(=O)n2NC(=S)N(C)C)cc1` was run?
The Potency was “inactive”.

How did the Potency turn out when `Cc1ccccc1CN(C)C(C)C(=O)Nc1ccccc1F` (stereo unspecified) was run?
Its Potency is inconclusive: 100 µM [inhibitor, single point].

Which Potency does the source give for `COc1ccc(-c2[nH]ncc2CN2CCC(N3CCSCC3)CC2)c(F)c1` here?
Its Potency is inconclusive: 22.4 µM [inhibitor, single point].

`N#CCC(=O)N1CC2(CC(c3cccc(NC(=O)COc4ccc(Cl)cc4)c3)=NO2)C[C@@H]1C(N)=O` (stereo partly specified) was tested. Which Potency did it give?
Its Potency is inconclusive: 126 µM [inhibitor, single point].

With `OC(CNCCc1ccc(C(F)(F)F)cc1)COC(c1ccccc1)c1ccccc1` (stereo unspecified) as the compound, how does the Potency read?
Its Potency is inconclusive: 25.1 µM [inhibitor, single point].

How did the Potency turn out when `Nc1nc2nc[nH]c2c(=O)[nH]1` was run?
Its Potency is “inactive”.

Which Potency does the source give for `C[C@H](CO)N1C[C@H](C)[C@@H](CN(C)S(=O)(=O)c2cccs2)Oc2c(NC(=O)Nc3ccc4c(c3)OCO4)cccc2C1=O` here?
Its Potency is inconclusive: 15.8 µM [inhibitor, single point].

With `Cc1cc2oc(C(=O)N(Cc3ccccc3)c3ccccn3)cc(=O)c2cc1Cl` as the compound, how does the Potency read?
The Potency was inconclusive: 112 µM [inhibitor, single point].

How did the Potency turn out when `COc1ccc(C(=O)NC2CCN(C(=S)Nc3ccccc3C)CC2)cc1` was run?
Its Potency is “inactive”.

`O=C(CS(=O)c1ccccc1[N+](=O)[O-])Oc1ccc(Br)cc1` (stereo unspecified) was tested. Which Potency did it give?
Its Potency is inconclusive: 22.4 µM [inhibitor, single point].

Which Potency does the source give for `Cn1c(C(=O)O)cc2c(=O)n3ccccc3nc21` here?
The Potency was inconclusive: 89.1 µM [inhibitor, single point].

`CCOC(=O)C1(Cc2cccc(F)c2)CCN(Cc2cn(CC)nc2C)CC1` was tested. Which Potency did it give?
The Potency was inconclusive: 17.8 µM [inhibitor, single point].

How did the Potency turn out when `Cc1cccn2c(=O)c3cc(C(=O)O)n(C)c3nc12` was run?
The Potency was “inactive”.

How did the Potency turn out when `O=[N+]([O-])c1cccnc1Sc1n[nH]c(-c2ccc(Cl)cc2)n1` was run?
Its Potency is inconclusive: 100 µM [inhibitor, partial curve, poor fit].

How did the Potency turn out when `CN1/C(=C\C=C2/C(=O)Oc3ccccc3C2=O)C(C)(C)c2ccccc21` was run?
The Potency was inconclusive: 15.8 µM [activator, partial curve].

Which Potency does the source give for `O=c1c2cc(NC(=S)NC3CC3)ccc2nc2n1CCCCC2` here?
Its Potency is inconclusive: 100 µM [inhibitor, single point].

`Cc1ccccc1CN1CCN(C2CCC2)CC1CCO` (stereo unspecified) was tested. Which Potency did it give?
The Potency was inconclusive: 70.8 µM [inhibitor, partial curve, poor fit].

`Nc1nc(N)c2c(ccc3nccc32)[nH]1` was tested. Which Potency did it give?
The Potency was inconclusive: 100 µM [inhibitor, single point].

Which Potency does the source give for `O=C(NCc1ccc(Cl)cc1)N1CCc2ccccc2C1` here?
Its Potency is inconclusive: 631 µM [inhibitor, partial curve, poor fit].

With `COc1ccc(/C=N/NC(=O)CSCC(=O)Nc2ccccc2)cc1` as the compound, how does the Potency read?
Its Potency is inconclusive: 100 µM [inhibitor, single point].

How did the Potency turn out when `N=c1c(C(=O)NCCN2CCOCC2)cc2c(=O)n3ccccc3nc2n1CCc1ccccc1` was run?
The Potency was inconclusive: 89.1 µM [inhibitor, single point].

With `COc1cc(OC)cc(C(=O)Nc2cc(-c3cn4cccnc4n3)ccc2C)c1` as the compound, how does the Potency read?
The Potency was inconclusive: 112 µM [inhibitor, single point].

With `CSc1ccccc1OCc1cc(C(=O)N2CCCC2c2nonc2C)no1` (stereo unspecified) as the compound, how does the Potency read?
The Potency was inconclusive: 316 µM [inhibitor, partial curve].

With `O=C(CN1CCN(C2CCCCC2)CC1)Nc1ccc(Br)cc1` as the compound, how does the Potency read?
Its Potency is inconclusive: 112 µM [inhibitor, single point].

With `COc1ccc(-n2ccnc2SCC(=O)Nc2ccc(OC)cc2OC)cc1` as the compound, how does the Potency read?
Its Potency is inconclusive: 20 µM [inhibitor, single point].

`O=C1CCC(C(=O)N(Cc2cccs2)C2(C(=O)NC3CCCCC3)CCCCC2)N1` (stereo unspecified) was tested. Which Potency did it give?
Its Potency is inconclusive: 112 µM [inhibitor, single point].

With `Cc1cc(C)c2cc3c(N)c(C(=O)N4CCOCC4)sc3nc2c1` as the compound, how does the Potency read?
Its Potency is “inactive”.

`Cc1onc(-c2c(Cl)cccc2Cl)c1COC(=O)c1ccc(Cl)cc1` was tested. Which Potency did it give?
Its Potency is inconclusive: 22.4 µM [inhibitor, single point].

For `Cc1cc(N2CCOCC2)nc2ccc(NC(=S)N3CCCCC3C)cc12` (stereo unspecified), which Potency is on record?
Its Potency is “inactive”.

`COC(=O)c1ccc(N2NC(=O)/C(=C/c3cc(OC)c(O)c(OC)c3)C2=O)cc1` was tested. Which Potency did it give?
The Potency was inconclusive: 100 µM [inhibitor, single point].

With `Cc1nc(Nc2ccccc2)sc1C(=O)c1ccccc1` as the compound, how does the Potency read?
Its Potency is inconclusive: 200 µM [inhibitor, partial curve].

With `COc1ccccc1-[n+]1c(C)cc(/C=C2\Sc3ccccc3N2C)cc1C` as the compound, how does the Potency read?
The Potency was inconclusive: 39.8 µM [activator, partial curve].

`O=C(c1cc(COc2cccc(C(F)(F)F)c2)on1)N1CCC(c2ccncc2)CC1` was tested. Which Potency did it give?
The Potency was inconclusive: 89.1 µM [inhibitor, single point].

Which Potency does the source give for `S=C(Nc1ccccc1Cl)N1CCCC1` here?
Its Potency is inconclusive: 89.1 µM [inhibitor, single point].

With `CCOc1ccc(NS(=O)(=O)c2ccc(C(=O)NCC(c3ccco3)N(C)C)cc2)cc1` (stereo unspecified) as the compound, how does the Potency read?
The Potency was inconclusive: 200 µM [inhibitor, single point].

Which Potency does the source give for `OCC1(CCOc2ccccc2)CCN(CCCn2cccn2)CC1` here?
The Potency was inconclusive: 28.2 µM [inhibitor, partial curve, poor fit].

With `CCOC(=O)c1ccc(-c2ccc(/C=C(\C#N)C(=O)NCC3CCCO3)o2)cc1` (stereo unspecified) as the compound, how does the Potency read?
The Potency was inconclusive: 20 µM [inhibitor, single point].

With `C#CCN1C(=O)C(O)(CC(=O)/C=C/c2ccco2)c2ccccc21` (stereo unspecified) as the compound, how does the Potency read?
Its Potency is “inactive”.

`Cc1ccsc1/C=N\NC(=O)Cn1nnc2ccccc21` was tested. Which Potency did it give?
Its Potency is inconclusive: 100 µM [inhibitor, partial curve].

With `O=C(COC(=O)Cc1n[nH]c(=O)c2ccccc12)Nc1ccc(Cl)cn1` as the compound, how does the Potency read?
Its Potency is inconclusive: 20 µM [inhibitor, single point].

How did the Potency turn out when `CC(Sc1ccc(S(=O)(=O)N2CCN(C)CC2)cn1)C(=O)NC1CCCCC1` (stereo unspecified) was run?
Its Potency is inconclusive: 100 µM [inhibitor, single point].

How did the Potency turn out when `Cc1ccc(C(C)C)c(OCC(=O)Nn2c(C)nc3ccccc3c2=O)c1` was run?
The Potency was inconclusive: 200 µM [inhibitor, partial curve].

`O=c1oc2ccccc2nc1/C=C(\O)c1ccccc1` was tested. Which Potency did it give?
Its Potency is “inactive”.

`N#CC1=C(SCC(=O)c2cc3ccccc3oc2=O)NC(=O)C(C#N)C12CCCC2` (stereo unspecified) was tested. Which Potency did it give?
Its Potency is inconclusive: 31.6 µM [activator, partial curve].

Which Potency does the source give for `CN(C)/C=C1\C=C2C(=O)c3ccccc3N2C1=O` here?
Its Potency is inconclusive: 39.8 µM [activator, partial curve].

`COCCn1c(CN2CCc3ccccc3C2)nc2c1c(=O)n(C)c(=O)n2C` was tested. Which Potency did it give?
Its Potency is inconclusive: 100 µM [inhibitor, single point].

For `COc1ccc(/C=C/C(=O)OCC(=O)Nc2ccc(N3CCOCC3)cc2)cc1`, which Potency is on record?
The Potency was inconclusive: 25.1 µM [inhibitor, partial curve, poor fit].

Which Potency does the source give for `OCCCNc1ncnc2scc(-c3ccc(Cl)cc3)c12` here?
Its Potency is inconclusive: 20 µM [inhibitor, single point].

How did the Potency turn out when `OC1(c2cccs2)CN(c2ccc(Br)cc2)C2=[N+]1CCCS2` (stereo unspecified) was run?
Its Potency is inconclusive: 100 µM [inhibitor, partial curve, poor fit].

How did the Potency turn out when `Cc1cc(=O)n2c3ccccc3n(CC(O)CN3CCN(CCO)CC3)c2c1C#N` (stereo unspecified) was run?
Its Potency is inconclusive: 126 µM [inhibitor, single point].

Which Potency does the source give for `c1ccc2c(c1)CN1CCCC1=N2` here?
Its Potency is “inactive”.

With `CCN(CC)c1ccc(-c2nnc(SCC(=O)N(CCOC)c3c(N)n(CC(C)C)c(=O)[nH]c3=O)o2)cc1` as the compound, how does the Potency read?
The Potency was inconclusive: 158 µM [inhibitor, single point].

For `COc1ccc(N=Cc2sc(O)c3ccccc23)cc1`, which Potency is on record?
The Potency was inconclusive: 6.31 µM [activator, full curve].

With `NC1=NC(=O)S/C1=C\c1ccc(F)cc1` as the compound, how does the Potency read?
The Potency was inconclusive: 22.4 µM [inhibitor, partial curve, poor fit].

For `COCCCNC(=O)Cn1nc(-c2ccc(C)cc2)ccc1=O`, which Potency is on record?
Its Potency is inconclusive: 5010 µM [inhibitor, partial curve, poor fit].

With `O=C(COc1ccccc1/C=C1\SC(=S)NC1=O)Nc1ccc(F)cc1` as the compound, how does the Potency read?
Its Potency is “inactive”.

How did the Potency turn out when `COCCN(Cc1nc(-c2ccc(-c3ccccc3)cc2)oc1C)C(C)C` was run?
The Potency was “inactive”.

For `O=C(CN1CCN(Cc2ccccc2)CC1)Nc1ccc([N+](=O)[O-])cc1C(=O)Nc1ccccc1F`, which Potency is on record?
Its Potency is “inactive”.

How did the Potency turn out when `CCOc1ccccc1NC(=O)C(NCC1(N2CCCCC2)CCCCC1)c1ccccc1` (stereo unspecified) was run?
Its Potency is inconclusive: 141 µM [inhibitor, partial curve, poor fit].

`Cc1ccccc1N(CC(=O)NCc1ccco1)C(=O)CCC(=O)Nc1nccs1` was tested. Which Potency did it give?
The Potency was “inactive”.

How did the Potency turn out when `Nc1cc(Cl)ccc1Oc1ccccc1` was run?
The Potency was inconclusive: 44.7 µM [inhibitor, partial curve].

Which Potency does the source give for `CCOP(=O)(O)c1cccc(OCCOCCOc2cccc(P(=O)(O)OCC)c2)c1` here?
Its Potency is inconclusive: 20 µM [inhibitor, single point].

How did the Potency turn out when `COc1ccc(NC(=O)CC(C)=O)c(OC)c1` was run?
Its Potency is inconclusive: 100 µM [inhibitor, single point].

How did the Potency turn out when `NC(=NCCCCCCN=C(N)/N=C(\N)Nc1ccc(Cl)cc1)/N=C(\N)Nc1ccc(Cl)cc1` was run?
Its Potency is inconclusive: 28.2 µM [inhibitor, single point].
